Reference: patent US20080274100A1
No constants are given. Whether binding was seen depends on the method and setting. A result given as binding can be weak or reduced; the word gives no strength.

Experiments:
[1] = target: platelet GPIb, guinea pig (guinea pig platelets) (guinea pig); test: FACS on guinea pig platelets
[2] = target: platelet GPIb, rabbit (rabbit platelets) (rabbit); test: FACS on rabbit platelets
[3] = target: platelet GPIb, guinea pig (guinea pig platelets) (guinea pig); test: FACS on guinea pig platelets, relative binding
[4] = target: platelet GPIb, rabbit (rabbit platelets) (rabbit); test: FACS on rabbit platelets, relative binding

Measured: binding

B1: S11 scFv (scFv)
scFv: EVQLVESGGGVVRPGGSLRLSCAASGFTFDLNPKVKHMWVRQAPGKGLEWVSGINWNGGSTGYADSVKGRFTISRDNAKNSLYLQMNSLRAEDTAVYYCARLRYPFFWGQGTLVTVSRGGGGSGGGGSGGGGSSELTQDPAVSVALGQTVRITCQGDSLRSYYASWYQQKPGQAPVLVIYGKNNRPSGIPDRFSGSSSGNTASLTITGAQAEDEADYYCNSRDSSGNHVVFGGGTKLTVLGAAAEQKLISEEDLNGAA
binds: [1] | [2] | [3] | [4]
